Assay results from PubChem BioAssay AID248 (DTP/NCI, 2004).
The list shows only some results of the screen, not a fair sample: it gathers tests that were run many times, whatever their T/C, doses with no T/C, and many T/C values between a quarter and a half above the control. Other doses and runs of a compound stand elsewhere. T/C is the treated group as % of the vehicle group. Some entries give survivors of the animals treated and no T/C: the source holds a T/C of zero for them, seemingly a mark for toxic or unscored doses. Some survivor counts are full or nearly so, which does not show that the dose was tolerated: the source hardly ever lists a survival T/C far under the control, and the zero likely stands for such cases as well. Survivors were counted at the toxicity check, usually on the fifth day, unless a day is given; later deaths do not show. Schedule codes are those of the source, taken here to give the interval after Q, in days (D) or hours (H), and the number of doses after X. Some entries were tested several times; the results are listed from low to high. Some schedules carry Z or #; the key to these is not given. For survival time, this PubChem deposit counts one and a half times the control or more as active, and values a quarter to a half above the control carry no call in these data; other NCI protocols may use other cut-offs. Some T/C values are followed by the survivors on the day toxicity was checked, most often the fifth; where none is given, no animal had died by that day.

System: L1210 leukemia ip in BDF1 mice, survival T/C
Test: NCI In Vivo Anticancer Drug Screen. Data for tumor model L1210 Leukemia (intraperitoneal) in B6D2F1 (BDF1) mice
Details: higher T/C = longer survival
[1] = T/C endpoint: mean survival time, dose: 400.0 mg/kg/injection, schedule: Q01DX001 (ip), vehicle: other

`Clc1ncnc2nc[nH]c12` was tested, and the T/C (T/C endpoint: mean survival time, dose: 37.5 mg/kg/injection, schedule: Q03HX008 (ip), vehicle: other) was 128 % of control, the T/C (T/C endpoint: mean survival time, dose: 37.5 mg/kg/injection, schedule: Q03HX016 (ip), vehicle: other) was 137 % of control and the T/C (T/C endpoint: mean survival time, dose: 50.0 mg/kg/injection, schedule: Q01DX009 (oral), vehicle: other) was 145 % of control. For the same molecule, the T/C (T/C endpoint: mean survival time, dose: 50.0 mg/kg/injection, schedule: Q01DX015 (ip), vehicle: other) was 128 % of control, the T/C (T/C endpoint: mean survival time, dose: 50.0 mg/kg/injection, schedule: Q03HX016 (ip), vehicle: other) was 136 % of control and the T/C (T/C endpoint: mean survival time, dose: 50.0 mg/kg/injection, schedule: Q03HX024 (ip), vehicle: other) was 147 % of control. For the same molecule, the T/C (T/C endpoint: mean survival time, dose: 75.0 mg/kg/injection, schedule: Q03HX008 (ip), vehicle: other) was 140 % of control, the T/C (T/C endpoint: mean survival time, dose: 96.0 mg/kg/injection, schedule: Q01DX015 (ip), vehicle: gum acacia) was 140 and 142 % of control and the T/C (T/C endpoint: mean survival time, dose: 100.0 mg/kg/injection, schedule: Q01DX009 (ip), vehicle: other) was 128 % of control. For the same molecule, the T/C (T/C endpoint: mean survival time, dose: 100.0 mg/kg/injection, schedule: Q01DX009 (oral), vehicle: other) was 127 and 141 % of control, the T/C (T/C endpoint: mean survival time, dose: 100.0 mg/kg/injection, schedule: Q01DX009 (sc), vehicle: other) was 149 % of control and the T/C (T/C endpoint: mean survival time, dose: 100.0 mg/kg/injection, schedule: Q01DX015 (ip), vehicle: other) was 143 % of control. The T/C (T/C endpoint: mean survival time, dose: 146.0 mg/kg/injection, schedule: Q01DX015 (ip), vehicle: gum acacia) was 129 % of control, the T/C (T/C endpoint: mean survival time, dose: 158.0 mg/kg/injection, schedule: Q01DX015 (ip), vehicle: gum acacia, evaluated on day 5) was 138 % of control and the T/C (T/C endpoint: mean survival time, dose: 158.0 mg/kg/injection, schedule: Q01DX015 (ip), vehicle: gum acacia, evaluated on day 45) was 138 % of control. For the same molecule, the T/C (T/C endpoint: mean survival time, dose: 200.0 mg/kg/injection, schedule: Q01DX005 (ip), vehicle: other) was 134 % of control [9 of 10 alive], the T/C (T/C endpoint: mean survival time, dose: 200.0 mg/kg/injection, schedule: Q01DX006 (iv), vehicle: other) was 136 % of control and the T/C (T/C endpoint: mean survival time, dose: 200.0 mg/kg/injection, schedule: Q01DX009 (ip), vehicle: other) was 130 and 142 % of control. For the same molecule, the T/C (T/C endpoint: mean survival time, dose: 200.0 mg/kg/injection, schedule: Q01DX009 (sc), vehicle: other) was 143 % of control, the T/C (T/C endpoint: mean survival time, dose: 200.0 mg/kg/injection, schedule: Q01DX015 (ip), vehicle: other) was 146 % of control and the T/C (T/C endpoint: mean survival time, dose: 200.0 mg/kg/injection, schedule: Q01DX Z (ip), vehicle: carboxymethylcellulose (CMC)) was 147 % of control. The T/C (T/C endpoint: mean survival time, dose: 218.0 mg/kg/injection, schedule: Q01DX015 (ip), vehicle: gum acacia) was 149 % of control, the T/C (T/C endpoint: mean survival time, dose: 241.0 mg/kg/injection, schedule: Q01DX015 (ip), vehicle: gum acacia, evaluated on day 5) was 128 % of control and the T/C (T/C endpoint: mean survival time, dose: 241.0 mg/kg/injection, schedule: Q01DX015 (ip), vehicle: gum acacia, evaluated on day 45) was 128 % of control. The T/C (T/C endpoint: mean survival time, dose: 327.0 mg/kg/injection, schedule: Q01DX015 (ip), vehicle: gum acacia) was 147 % of control, the survivor count (T/C endpoint: mean survival time, dose: 400.0 mg/kg/injection, schedule: Q01DX001 (iv), vehicle: other) was 0 of 10 and the T/C (T/C endpoint: mean survival time, dose: 400.0 mg/kg/injection, schedule: Q01DX001 (oral), vehicle: other) was 129 % of control. The T/C (T/C endpoint: mean survival time, dose: 400.0 mg/kg/injection, schedule: Q01DX005 (ip), vehicle: other) was 147 % of control [8 of 10 alive], the T/C (T/C endpoint: mean survival time, dose: 400.0 mg/kg/injection, schedule: Q01DX009 (ip), vehicle: other) was 127 [8 of 10 alive] and 129 % of control [9 of 10 alive] and the survivor count (T/C endpoint: mean survival time, dose: 400.0 mg/kg/injection, schedule: Q01DX009 (oral), vehicle: other) was 6 of 10. For the same molecule, the T/C (T/C endpoint: mean survival time, dose: 400.0 mg/kg/injection, schedule: Q01DX009 (sc), vehicle: other) was 126 % of control [7 of 10 alive], the survivor count (T/C endpoint: mean survival time, dose: 400.0 mg/kg/injection, schedule: Q01DX Z (ip), vehicle: carboxymethylcellulose (CMC)) was 0 of 6 and the survivor count (T/C endpoint: mean survival time, dose: 490.0 mg/kg/injection, schedule: Q01DX015 (ip), vehicle: gum acacia) was 10 of 10. For the same molecule, the survivor count (T/C endpoint: mean survival time, dose: 540.0 mg/kg/injection, schedule: Q01DX015 (ip), vehicle: gum acacia) was 0 of 10 and 10 of 10, the survivor count (T/C endpoint: mean survival time, dose: 600.0 mg/kg/injection, schedule: Q01DX001 (sc), vehicle: other) was 6 of 10 and the survivor count (T/C endpoint: mean survival time, dose: 600.0 mg/kg/injection, schedule: Q04DX003 (ip), vehicle: other) was 0 of 10. For the same molecule, the survivor count (T/C endpoint: mean survival time, dose: 600.0 mg/kg/injection, schedule: Q08DX002 (ip), vehicle: other) was 1 of 10, the T/C (T/C endpoint: mean survival time, dose: 800.0 mg/kg/injection, schedule: Q01DX001 (oral), vehicle: other) was 142 % of control [8 of 10 alive] and the survivor count (T/C endpoint: mean survival time, dose: 910.0 mg/kg/injection, schedule: Q01DX015 (ip), vehicle: gum acacia) was 0 of 10 and 10 of 10.

`O=c1nc(NC(=S)Nc2ccn(C3OC(CO)C(O)C3O)c(=O)n2)ccn1C1OC(CO)C(O)C1O` (configuration not stated) was tested, and the T/C (T/C endpoint: mean survival time, dose: 100.0 mg/kg/injection, schedule: Q01DX001 (ip), vehicle: saline) was 138 % of control, the T/C (T/C endpoint: mean survival time, dose: 100.0 mg/kg/injection, schedule: Q01DX001 (ip), vehicle: water) was 125 and 132 % of control and the survivor count (T/C endpoint: mean survival time, dose: 200.0 mg/kg/injection, schedule: Q01DX001 (ip), vehicle: other) was 1 of 6. The T/C (T/C endpoint: mean survival time, dose: 200.0 mg/kg/injection, schedule: Q01DX001 (ip), vehicle: water) was 141 % of control, the T/C [1] was 126 % of control and the survivor count [1] was 0 of 6. The T/C (T/C endpoint: mean survival time, dose: 400.0 mg/kg/injection, schedule: Q01DX001 (ip), vehicle: water, evaluated on day 30) was 148 % of control [9 of 10 alive], the T/C (T/C endpoint: mean survival time, dose: 400.0 mg/kg/injection, schedule: Q01DX001 (ip), vehicle: water, evaluated on day 60) was 131 % of control and the survivor count (T/C endpoint: mean survival time, dose: 600.0 mg/kg/injection, schedule: Q01DX001 (ip), vehicle: other) was 2 of 6. The T/C (T/C endpoint: median survival time, dose: 6.3 mg/kg/injection, schedule: Q03HX024 (ip), vehicle: saline) was 133 % of control, the T/C (T/C endpoint: median survival time, dose: 100.0 mg/kg/injection, schedule: Q03HX024 (ip), vehicle: saline) was 133 % of control [7 of 8 alive] and the T/C (T/C endpoint: median survival time, dose: 100.0 mg/kg/injection, schedule: Q04DX003 (ip), vehicle: saline) was 147 % of control. The T/C (T/C endpoint: median survival time, dose: 200.0 mg/kg/injection, schedule: Q01DX001 (ip), vehicle: saline) was 142 % of control, the T/C (T/C endpoint: median survival time, dose: 400.0 mg/kg/injection, schedule: Q01DX009 (ip), vehicle: saline) was 133 % of control and the survivor count (T/C endpoint: median survival time, dose: 800.0 mg/kg/injection, schedule: Q01DX009 (ip), vehicle: saline) was 8 of 8. For the same molecule, the survivor count (T/C endpoint: median survival time, dose: 1600.0 mg/kg/injection, schedule: Q01DX001 (oral), vehicle: saline) was 6 of 8.

In the case of `O=C(NO)Nc1nc(Cl)c(Cl)nc1Cl`, the survivor count (T/C endpoint: mean survival time, dose: 100.0 mg/kg/injection, schedule: Q01DX009 (ip), vehicle: water) is reported as 3 of 6, the survivor count (T/C endpoint: mean survival time, dose: 200.0 mg/kg/injection, schedule: Q01DX009 (ip), vehicle: water) is reported as 3 of 6 and the survivor count (T/C endpoint: mean survival time, dose: 400.0 mg/kg/injection, schedule: Q01DX009 (ip), vehicle: water) is reported as 0 of 6.

`Nc1nc(-c2ccccc2)c(CCCOc2ccccc2)c(=O)[nH]1` was tested, and the survivor count (T/C endpoint: mean survival time, dose: 50.0 mg/kg/injection, schedule: Q01DX009 (ip), vehicle: gum acacia) was 6 of 6 and the survivor count (T/C endpoint: mean survival time, dose: 200.0 mg/kg/injection, schedule: Q01DX009 (ip), vehicle: gum acacia) was 6 of 6.

For `CCC1(N)COC(c2ccccc2)OC1` (configuration not stated), the survivor count (T/C endpoint: mean survival time, dose: 200.0 mg/kg/injection, schedule: Q01DX009 (ip), vehicle: Klucel (hydroxypropylcellulose) (HPC)) was 0 of 6.

With `Cc1ccc([N+](=O)[O-])cc1NC(=O)Oc1ccc2c(C)cc(=O)oc2c1` the survivor count (T/C endpoint: mean survival time, dose: 200.0 mg/kg/injection, schedule: Q04DX002 (ip), vehicle: Klucel (hydroxypropylcellulose) (HPC)) was 4 of 4.

For `Brc1ccccc1C[n+]1cccc2ccccc21`, the survivor count (T/C endpoint: mean survival time, dose: 150.0 mg/kg/injection, schedule: Q01DX001 (ip), vehicle: other) was 0 of 6 and the survivor count (T/C endpoint: mean survival time, dose: 300.0 mg/kg/injection, schedule: Q01DX001 (ip), vehicle: other) was 0 of 6.

In the case of `O=S(=O)(O)c1ccc(CCCCCCCCl)cc1`, the survivor count (T/C endpoint: mean survival time, dose: 400.0 mg/kg/injection, schedule: Q04DX002 (ip), vehicle: Klucel (hydroxypropylcellulose) (HPC)) is reported as 1 of 3.

`CC(=O)Nc1ccc(/C=N/NC(=O)CNC(=O)Nc2cccc(Cl)c2)cc1` was tested, and the survivor count (T/C endpoint: mean survival time, dose: 100.0 mg/kg/injection, schedule: Q01DX009 (ip), vehicle: saline with Tween-80) was 3 of 3 and the survivor count (T/C endpoint: mean survival time, dose: 200.0 mg/kg/injection, schedule: Q01DX009 (ip), vehicle: saline with Tween-80) was 3 of 3.
